Data taken from article PMC3167755.
Where a protein sequence is shown, tags need not be part of it. The exact form of at least one protein or probe is not confirmed. The comparison behind a weaker result is the experiment's own reference, which may not be listed here.

Molecular target: T1, Fur-His6 (CjFur-His6) (Campylobacter jejuni 81-176) (UniProt P0C631)
T1 sequence (looked up): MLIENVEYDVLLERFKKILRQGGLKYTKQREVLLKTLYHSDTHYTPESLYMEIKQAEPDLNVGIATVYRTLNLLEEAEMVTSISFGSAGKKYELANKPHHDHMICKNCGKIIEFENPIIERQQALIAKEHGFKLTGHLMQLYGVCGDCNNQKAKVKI
Experiment: EMSA
Settings: 10 mM Tris-HCl pH 7.5, 1 mM MgCl2, 0.5 mM DTT, 50 mM KCl, 100 uM MnCl2 (omitted where stated), 1 ug poly(dI-dC), 50 ug BSA, 5% glycerol, 20 ul, ~28 fmol DNA, recombinant protein, residues 1-157, label: digoxigenin on primer DIG_dsbA2X, probe letters rebuilt from the primers and the genome

“CTTATCCATAAAATATAATGTAAAAAATTGATAATTTTATTTCGTAAATTAAAATTATATTTTACTTTTATTGAAAACTATAAAGAATATTTAAAAATTAAATTATTTTATATTATTATCAAAATATACATAAAAATGATAACTTGTGCATTTAAATTTTTTAATCCCCTATTCTTGATTTTTAGTTAAAGTAAATATTCTTAGTTATAAAATTTTTAAGAATATTTTTATTTTAATAGTTTTATAATGATTATTACATAAAAACTTAATAAAAAGTTTTATCAAAACCAAATTTCAAGGAGAAGGTAATGAAATTTCCAGTAAAATTAGCAAGATCTATTGTTGTATGTG (double strand) [dsbA2-dsbB-astA promoter region]”: binds more weakly (100 uM Mn2+, bound only at high protein concentration); binds (no Mn2+, 0-3333 nM Fur).
